PubChem BioAssay AID1259254 | NCATS | 2017

- Aim: 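Gene knock-downs that lead to re-replication, shown by excess G2 DNA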 (primary screen)
- Cells: human HCT116 colorectal cancer cells
- Reagents: single siRNA against human genes
- Duration: 3 days
- Measured: 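Imaged Hoechst DNA stain sorts each cell into a cycle phase by DNA amount; per plate, G2 fraction set to 0% for non-targeting and 100% for GMNN siRNA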
- Scale: G2 robust z-score and G2 cells, % of GMNN control: higher = more G2 cells, more excess DNA replication; raw share of cells in G2: higher = larger share of cells with G2 DNA content
- Rule for the call: 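Active siRNAs have a G2 robust z of 5 or more median absolute deviations over the median, which in these data means about 38% or higher of GMNN control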
In all, the deposit lists about 59,000 reagents; below is a random part of them. In the full data, about 1,550 (2.6%) were called active. 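G2 share is only a proxy for re-replication; each gene was hit by three separate siRNAs, and active genes were retested.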 The raw values are shown without normalisation. The numbers tell different reagents against one gene apart. Not stated in the record: the amount of reagent.

G2 robust z-score	G2 cells, % of GMNN control	raw share of cells in G2 (%)	call	gene	reagent
1.62	14.4	10.6	inactive	CDY2A (chromodomain Y-linked 2A)	1
-0.0807	2.4	4.02	inactive	CDY2A (chromodomain Y-linked 2A)	2
0.518	6.61	7.7	inactive	CDY2A (chromodomain Y-linked 2A)	3
0.949	9.65	7.32	inactive	PDRG1 (p53 and DNA damage regulated 1)	1
-0.0136	2.87	4.31	inactive	PDRG1 (p53 and DNA damage regulated 1)	2
-0.645	-1.57	1.93	inactive	PDRG1 (p53 and DNA damage regulated 1)	3
6.93	51.7	29.6	active	COX15 (cytochrome c oxidase assembly factor COX15)	1
-0.897	-3.35	2.86	inactive	COX15 (cytochrome c oxidase assembly factor COX15)	2
-0.354	0.479	3.71	inactive	COX15 (cytochrome c oxidase assembly factor COX15)	3
-0.104	2.24	4.66	inactive	GTPBP2 (GTP binding protein 2)	1
0.0304	3.18	7.4	inactive	GTPBP2 (GTP binding protein 2)	2
0.0985	3.66	5.6	inactive	GTPBP2 (GTP binding protein 2)	3
0.845	8.91	7.86	inactive	SRGAP1 (SLIT-ROBO Rho GTPase activating protein 1)	1
4.52	34.8	21.1	inactive	SRGAP1 (SLIT-ROBO Rho GTPase activating protein 1)	2
0.438	6.05	4.95	inactive	SRGAP1 (SLIT-ROBO Rho GTPase activating protein 1)	3
0.189	4.3	6.19	inactive	CTDSP1 (CTD small phosphatase 1)	1
4.88	37.3	15.5	inactive	CTDSP1 (CTD small phosphatase 1)	2
5.46	41.4	16	active	CTDSP1 (CTD small phosphatase 1)	3
-0.669	-1.74	2.95	inactive	TFDP1P2 (TFDP1 pseudogene 2)	1
0.773	8.41	6.6	inactive	TFDP1P2 (TFDP1 pseudogene 2)	2
3.61	28.4	12.8	inactive	TFDP1P2 (TFDP1 pseudogene 2)	3
-0.0566	2.57	5.51	inactive	RPS2P45 (ribosomal protein S2 pseudogene 45)	1
-0.344	0.544	4.54	inactive	RPS2P45 (ribosomal protein S2 pseudogene 45)	2
-0.303	0.835	2.61	inactive	RPS2P45 (ribosomal protein S2 pseudogene 45)	3
0.703	7.91	8.11	inactive	PHC2 (polyhomeotic homolog 2)	1
-0.7	-1.95	2.96	inactive	PHC2 (polyhomeotic homolog 2)	2
-1.05	-4.45	3.57	inactive	PHC2 (polyhomeotic homolog 2)	3
0.908	9.35	8.05	inactive	AOPEP (aminopeptidase O (putative))	1
-0.951	-3.73	1.83	inactive	AOPEP (aminopeptidase O (putative))	2
0.462	6.22	4.9	inactive	AOPEP (aminopeptidase O (putative))	3

Quoted from above for reference:
G2 robust z-score	G2 cells, % of GMNN control	raw share of cells in G2 (%)	call	gene	reagent
0.949	9.65	7.32	inactive	PDRG1 (p53 and DNA damage regulated 1)	1
-0.0136	2.87	4.31	inactive	PDRG1 (p53 and DNA damage regulated 1)	2
-0.645	-1.57	1.93	inactive	PDRG1 (p53 and DNA damage regulated 1)	3
6.93	51.7	29.6	active	COX15 (cytochrome c oxidase assembly factor COX15)	1
-0.897	-3.35	2.86	inactive	COX15 (cytochrome c oxidase assembly factor COX15)	2
